Test results published in patent publication US20230130766A1 (SALK INSTITUTE FOR BIOLOGICAL STUDIES, priority 2020, published 2023).
Some entries share one result that the patent states for a list of compounds.

Tested on: MIA PaCa-2 cells
Experiment: MIA PaCa-2 xenografts, ULK inhibitor alone and in combination with trametinib
Assay type: in vivo, nude mice
Conditions: day 25
Experimental: MIA PaCa-2 cells were injected bilaterally into the flanks nude mice to create tumor xenografts in order to assess the efficacy of Compound 14 in treating pancreatic cancer tumors alone and in combination with trametinib, an MEK inhibitor and current standard of care therapy for the treatment of pancreatic cancer. After letting tumor cells proliferate to the point where tumors had reach ˜300 mm^3 in volume, one cohort of mice was administered 20 mg/kg daily doses of Compound 14, one cohort of mice was administered 30 mg/kg daily doses of Compound 14, one cohort of mice was administered 1 mg/kg daily doses of trametinib, one cohort of mice was administered 1 mg/kg daily doses of trametinib in combination with 20 mg/kg daily doses of Compound 14, one cohort of mice was administered 1 mg/kg daily doses of trametinib in combination with 30 mg/kg daily doses of Compound 14, and the remaining cohort of mice was administered vehicle alone. Treatment and monitoring were continued for 25 days.

Structure (SMILES)	tumor volume at the end of the study (trametinib 1 mg/kg daily alone)	tumor volume at the end of the study (30 mg/kg daily alone)
CC(=O)Nc1cccc(-n2c(=O)n(C3CC3)c(=O)c3c(Nc4ccc(I)cc4F)n(C)c(=O)c(C)c32)c1 [trametinib, reference compound]	above 500 mm^3	–
CNC(=O)c1ccccc1Nc1nc(Nc2cc(OC)c(OC)c(OC)c2)ncc1Br [Compound 14]	–	above 500 mm^3
